Measured values as given in article PMC10322692.
Results are given in words; binding and its absence hold for the method and conditions named. In cells and extracts the contact can be indirect. Some results given as binding are weak or reduced against the parent protein; the word gives no strength.

Amino acid sequences for entries named in this document (tags omitted). Residues count along the entry.
UniProt P24394, residues 26-825: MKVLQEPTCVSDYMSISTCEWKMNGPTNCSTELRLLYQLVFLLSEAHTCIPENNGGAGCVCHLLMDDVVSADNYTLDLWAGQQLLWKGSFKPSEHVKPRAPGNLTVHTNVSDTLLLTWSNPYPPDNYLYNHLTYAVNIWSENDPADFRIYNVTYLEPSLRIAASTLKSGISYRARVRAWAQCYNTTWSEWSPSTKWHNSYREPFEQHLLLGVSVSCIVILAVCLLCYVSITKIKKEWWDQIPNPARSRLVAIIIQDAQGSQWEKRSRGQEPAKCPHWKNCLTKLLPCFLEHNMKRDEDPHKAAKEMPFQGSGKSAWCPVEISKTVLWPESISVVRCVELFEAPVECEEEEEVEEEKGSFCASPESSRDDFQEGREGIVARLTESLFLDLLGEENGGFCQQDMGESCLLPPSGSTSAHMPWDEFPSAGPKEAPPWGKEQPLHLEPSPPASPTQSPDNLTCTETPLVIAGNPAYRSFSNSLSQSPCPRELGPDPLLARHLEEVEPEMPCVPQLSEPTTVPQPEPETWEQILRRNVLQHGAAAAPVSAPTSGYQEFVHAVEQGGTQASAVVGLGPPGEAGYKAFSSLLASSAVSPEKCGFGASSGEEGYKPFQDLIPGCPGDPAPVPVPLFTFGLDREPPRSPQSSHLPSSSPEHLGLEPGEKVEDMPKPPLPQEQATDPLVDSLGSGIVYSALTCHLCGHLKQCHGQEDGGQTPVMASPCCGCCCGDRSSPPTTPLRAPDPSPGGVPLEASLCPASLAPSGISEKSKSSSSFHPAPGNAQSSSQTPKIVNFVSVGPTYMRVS

Biological target: IL-4Rα (UniProt P24394)
Test: co-IP; co-immunoprecipitation from ZHX2-deficient podocytes; which protein was precipitated not given; method as previously described and in the Supplemental Methods

- binding: binds
B1: ZHX1 (protein, UniProt Q9UKY1 1-873)
chain: MASRRKSTTPCMVLASEQDPDLELISDLDEGPPVLTPVENTRAESISSDEEVHESVDSDNQQNKKVEGGYECKYCTFQTPDLNMFTFHVDSEHPNVVLNSSYVCVECNFLTKRYDALSEHNLKYHPGEENFKLTMVKRNNQTIFEQTINDLTFDGSFVKEENAEQAESTEVSSSGISISKTPIMKMMKNKVENKRIAVHHNSVEDVPEEKENEIKPDREEIVENPSSSASESNTSTSIVNRIHPSTASTVVTPAAVLPGLAQVITAVSAQQNSNLIPKVLIPVNSIPTYNAALDNNPLLLNTYNKFPYPTMSEITVLSAQAKYTEEQIKIWFSAQRLKHGVSWTPEEVEEARRKQFNGTVHTVPQTITVIPTHISTGSNGLPSILQTCQIVGQPGLVLTQVAGTNTLPVTAPIALTVAGVPSQNNIQKSQVPAAQPTAETKPATAAVPTSQSVKHETALVNPDSFGIRAKKTKEQLAELKVSYLKNQFPHDSEIIRLMKITGLTKGEIKKWFSDTRYNQRNSKSNQCLHLNNDSSTTIIIDSSDETTESPTVGTAQPKQSWNPFPDFTPQKFKEKTAEQLRVLQASFLNSSVLTDEELNRLRAQTKLTRREIDAWFTEKKKSKALKEEKMEIDESNAGSSKEEAGETSPADESGAPKSGSTGKICKKTPEQLHMLKSAFVRTQWPSPEEYDKLAKESGLARTDIVSWFGDTRYAWKNGNLKWYYYYQSANSSSMNGLSSLRKRGRGRPKGRGRGRPRGRPRGSKRINNWDRGPSLIKFKTGTAILKDYYLKHKFLNEQDLDELVNKSHMGYEQVREWFAERQRRSELGIELFEENEEEDEVIDDQEEDEEETDDSDTWEPPRHVKRKLSKSDD
